Experimental data from patent US20120020975A1.

Experiments:
[1] = target: human PCSK9 (proprotein convertase subtilisin kexin type 9), mature form (human); test: in vitro binding data (Biacore and Kinexa)
[2] = target: human PCSK9 (proprotein convertase subtilisin kexin type 9), mature form (human); test: western blot, denaturing reducing and non-reducing

Binder | binding [1] | binding [2]
21B12, anti-PCSK9 huIgG4 (antibody, V domains shown) VH: QVQLVQSGAEVKKPGASVKVSCKASGYTLTSYGISWVRQAPGQGLEWMGWVSFYNGNTNYAQKLQGRGTMTTDPSTSTAYMELRSLRSDDTAVYYCARGYGMDVWGQGTTVTVSS VL: QSALTQPASVSGSPGQSITISCTGTSSDVGGYNSVSWYQQHPGKAPKLMIYEVSNRPSGVSNRFSGSKSGNTASLTISGLQAEDEADYYCNSYTSTSMVFGGGTKLTVLQ | binds | 
16F12, anti-PCSK9 huIgG4 (antibody, V domains shown) VH: QVHLVESGGGVVQPGRSLRLSCAASGFTFNSFGMHWVRQAPGKGLEWVALIWSDGSDEYYADSVKGRFTISRDNSKNTLYLQMNSLRAEDTAVYYCARAIAALYYYYGMDVWGQGTTVTVSS VL: QSVLTQPPSVSAAPGQKVTISCSGSSSNIGNNFVSWYQQLPGTAPKLLIYDYNKRPSGIPDRFSGSKSGTSATLGITGLQTGDEADYYCGTWDSSLSAYVFGTGTRVTVLQ | binds | 
13H1 (antibody, V domains shown) VH: QVQLQQSGPGLVKPSQTLSLTCAISGDSVSSNSAAWNWIRQSPSRGLEWLGRTYYRSKWYKNYSVSVKSRITINPDTSKNQFSLQLNSVTPGDTAVYYCARGGPTAAFDYWGQGTLVTVSS VL: LSALTQPASVSGSPGQSITISCTGTSSDVGNYNLVSWYQQYSGKAPKLMIYEVSKRPSGVSNRFSGSKSGNTASLTISGLQAEDEADYYCCSYAGSSTLVFGGGTKLTVL |  | binds

These are yes or no findings as the source states them, for the method shown. A result given as binding can be weak or reduced; the word gives no strength.
